The data set has as its system M. galloprovincialis plantigrade larvae proteome. As to the kind of experiment: Differential proteome analysis of plantigrade larvae (label-free shotgun proteomics). Also noted: species or system Mytilus galloprovincialis.
Where [1] appears, read: larvae exposed at 12.5 and 50 µM.
Setting [2] is: larvae exposed at 6.25 and 25 µM.

Take `O=c1c2ccccc2oc2c(O)c(O)ccc12` [Compound 7, 3,4-dihydroxy-]: under setting [1], the “abundance of protein-2 collagen-like and precollagen P (PreCols) versus control” value was “respectively above and below the control levels”; the “number of proteins with altered abundance” value (“number of proteins” below) amounted to 24 proteins.
For `CC1(C)CCc2cc3c(=O)c4ccccc4oc3c(O)c2O1` [Compound 10, 4-dihydro-12-hydroxy-2,2-dimethyl-2H,6H-pyrano [3,2-b]xanthone], the “number of proteins” value under setting [2] is 14 proteins. The “detection of two putative proximal thread matrix proteins (TMPs)” value (larvae exposed at 6.25 and 25 µM, detected in control) was “become undetected”.
Regarding `CCCOc1ccc(N2CCCCC2)c2c(=O)c3ccccc3sc12` [Compound 17, 1-(piperidin-1-yl)-4-propoxy-9H-thioxanthen-9-one], the “number of proteins” value under setting [2] was “five”.

Source of the values: PMC7463931, “Structure-Antifouling Activity Relationship and Molecular Targets of Bio-Inspired(thio)xanthones” (Biomolecules, 2020).
